Data from PMC4976255.
No constants are given. Whether binding was seen depends on the method and setting. In cells and extracts the contact can be indirect. Some entries that bind do so weakly or less than the wild type. Sequences can lack the tags named with a protein.

Chains of the proteins cited; added tags and fusions are not shown.
UniProt Q06413: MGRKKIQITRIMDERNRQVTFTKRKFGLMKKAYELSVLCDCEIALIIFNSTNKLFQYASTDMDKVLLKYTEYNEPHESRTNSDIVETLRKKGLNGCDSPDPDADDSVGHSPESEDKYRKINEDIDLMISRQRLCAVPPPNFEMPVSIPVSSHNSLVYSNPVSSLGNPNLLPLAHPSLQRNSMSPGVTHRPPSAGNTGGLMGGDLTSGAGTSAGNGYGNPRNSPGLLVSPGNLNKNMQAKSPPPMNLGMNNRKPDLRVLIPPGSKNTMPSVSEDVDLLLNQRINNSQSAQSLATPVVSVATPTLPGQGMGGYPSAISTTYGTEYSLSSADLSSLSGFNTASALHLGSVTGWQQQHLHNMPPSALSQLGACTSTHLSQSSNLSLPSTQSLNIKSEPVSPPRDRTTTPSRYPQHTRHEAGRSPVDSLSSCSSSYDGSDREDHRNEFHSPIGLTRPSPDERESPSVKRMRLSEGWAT

Tests used:
[1] = target: T1, Myc-tagged myogenin (rat) (UniProt P20428); experiment: co-IP; HEK-293 cells co-transfected with MEF2C-Flag and Myc-MRF4 or Myc-myogenin, plus a plasmid coding for E47; lysates immunoprecipitated with anti-Myc; Immunocruz IP/WB Optima System
T1 sequence: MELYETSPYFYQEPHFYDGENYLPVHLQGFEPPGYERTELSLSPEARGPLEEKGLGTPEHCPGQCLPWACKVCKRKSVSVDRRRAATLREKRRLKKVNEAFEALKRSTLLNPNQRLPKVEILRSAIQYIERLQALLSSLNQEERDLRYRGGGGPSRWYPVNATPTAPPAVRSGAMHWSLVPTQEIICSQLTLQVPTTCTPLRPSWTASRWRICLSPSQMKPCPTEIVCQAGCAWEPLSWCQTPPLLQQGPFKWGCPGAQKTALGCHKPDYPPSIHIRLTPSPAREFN

Myc-tagged MRF4 (mouse) = target: T2, Myc-tagged MRF4 (mouse) (UniProt P15375); experiment: as above
T2 sequence: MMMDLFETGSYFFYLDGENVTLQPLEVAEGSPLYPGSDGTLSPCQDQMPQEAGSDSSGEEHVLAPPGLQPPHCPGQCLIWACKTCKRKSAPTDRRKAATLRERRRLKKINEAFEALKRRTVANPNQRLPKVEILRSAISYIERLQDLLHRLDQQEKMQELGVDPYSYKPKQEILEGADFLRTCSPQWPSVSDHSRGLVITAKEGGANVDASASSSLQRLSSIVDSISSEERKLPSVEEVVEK

“Flag-tagged MEF2C (from UniProt Q06413 1-473)” was tested, and the binding [1] was “binds” and the binding (Myc-tagged MRF4 (mouse)) was “binds”.
